Test results reported in US20220227848A1 (NORDIC BIOSCIENCE A S, published 2022).
These are yes or no findings as the source states them, for the method shown. Some entries that bind do so weakly or less than the wild type.

The chains behind the UniProt entries cited, without tags or fusion partners. Residues count along the entry.
UniProt Q86Y22, residues 57-540: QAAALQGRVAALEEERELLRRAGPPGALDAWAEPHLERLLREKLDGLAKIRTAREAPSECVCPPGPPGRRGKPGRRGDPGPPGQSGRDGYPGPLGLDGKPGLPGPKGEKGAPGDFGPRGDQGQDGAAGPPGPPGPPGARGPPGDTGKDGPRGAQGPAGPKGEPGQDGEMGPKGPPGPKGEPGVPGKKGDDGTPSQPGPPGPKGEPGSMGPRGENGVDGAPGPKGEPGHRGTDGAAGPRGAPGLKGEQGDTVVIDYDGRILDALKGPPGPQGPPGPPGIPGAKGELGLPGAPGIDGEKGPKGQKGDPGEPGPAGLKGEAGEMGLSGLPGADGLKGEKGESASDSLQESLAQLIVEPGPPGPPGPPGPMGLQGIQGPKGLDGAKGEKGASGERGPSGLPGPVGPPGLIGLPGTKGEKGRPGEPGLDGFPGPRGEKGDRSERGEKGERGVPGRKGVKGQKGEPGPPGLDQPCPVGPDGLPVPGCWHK

Biological target: recombinant human type XXIII collagen ectodomain (R&D system, 4165-CL) (human) (UniProt Q86Y22)
Assay: Western blot, reducing SDS-PAGE, 1 µg/ml 10F6 as primary antibody

B1: monoclonal antibody 10F6 (antibody, mouse IgG2b, kappa, V domains shown)
VH: EVKLVESGGGLVKPGGSLKLSCAASGFTFSSYAMSWVRQTPEKRLAWVASISTAGRTYYPDTVRGRITISRDNARNILYLQMSSLRSEDTAIYYCARPDYDYDGYINWGQGTLVTVSA
VL: DIVMTQAAFSNPVTLGTSAYISCRSSKSLLHSNGVTYLYWYLQKPGQSPQLLIYQMSNLASGVPDRFSSSGSGTDFTLRISRVEAEDVGVYYCAQNLELPLTFGAGTKLELKR
notes: Mouse (Balb/C) hybridoma antibody purified on an IgG column; also called PRO-C23 antibody 10F6; PRO-C23 antibody
  binding: binds
